In paper PMC5342411:
These are yes or no findings as the source states them, for the method shown. In cells and extracts the contact can be indirect. Some results given as binding are weak or reduced against the parent protein; the word gives no strength.

Biological target: T1, atypical protein kinase C-ι (human (endogenous in CCA tissues, TFK-1 and HuCCT1)) (UniProt P41743)
T1 sequence: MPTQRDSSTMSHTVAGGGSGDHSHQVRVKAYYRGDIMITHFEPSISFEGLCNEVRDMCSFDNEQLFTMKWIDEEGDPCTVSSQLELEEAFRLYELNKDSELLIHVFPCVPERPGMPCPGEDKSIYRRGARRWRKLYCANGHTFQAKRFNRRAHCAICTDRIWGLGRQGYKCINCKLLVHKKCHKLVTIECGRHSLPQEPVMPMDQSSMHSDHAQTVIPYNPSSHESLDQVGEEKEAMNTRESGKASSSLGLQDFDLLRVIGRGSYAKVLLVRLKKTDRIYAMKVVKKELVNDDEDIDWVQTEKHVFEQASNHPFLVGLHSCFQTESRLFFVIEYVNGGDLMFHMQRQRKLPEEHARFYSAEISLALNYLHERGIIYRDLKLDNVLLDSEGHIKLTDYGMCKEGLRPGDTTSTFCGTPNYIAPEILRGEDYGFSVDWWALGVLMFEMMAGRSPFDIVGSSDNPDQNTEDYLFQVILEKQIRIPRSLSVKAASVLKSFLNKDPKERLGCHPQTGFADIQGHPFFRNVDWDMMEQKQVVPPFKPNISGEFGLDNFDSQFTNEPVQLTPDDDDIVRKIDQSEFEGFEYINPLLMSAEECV
Assay: co-IP; endogenous proteins in RIPA lysates of CCA tissues and TFK-1 and HuCCT1 cells; 1 mg total protein pre-cleared with rabbit IgG and protein A+G agarose; precipitated with anti-aPKC-ι or anti-14-3-3ζ antibody overnight at 4°C; washed 5 times with RIPA lysis buffer; Western blot with the other antibody; rabbit IgG as negative control

For 14-3-3ζ (from UniProt P63104-1 1-245), the binding was “binds”.
